The text below walks through data of publication PMC10251476.

Protein sequences, listed by entry. Tags and fused reporters are not part of them. Lines headed by an entry give the natural chain unless they say otherwise; changes in a name come on top. Residues count along the entry.
UniProt Q99720, residues 2-223: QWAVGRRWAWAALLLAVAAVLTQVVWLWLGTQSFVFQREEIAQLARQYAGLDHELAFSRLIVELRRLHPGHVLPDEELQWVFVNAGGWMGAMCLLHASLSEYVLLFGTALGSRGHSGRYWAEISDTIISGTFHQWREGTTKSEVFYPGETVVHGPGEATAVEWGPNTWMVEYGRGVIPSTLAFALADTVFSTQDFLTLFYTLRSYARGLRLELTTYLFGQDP
UniProt P11021, residues 19-653: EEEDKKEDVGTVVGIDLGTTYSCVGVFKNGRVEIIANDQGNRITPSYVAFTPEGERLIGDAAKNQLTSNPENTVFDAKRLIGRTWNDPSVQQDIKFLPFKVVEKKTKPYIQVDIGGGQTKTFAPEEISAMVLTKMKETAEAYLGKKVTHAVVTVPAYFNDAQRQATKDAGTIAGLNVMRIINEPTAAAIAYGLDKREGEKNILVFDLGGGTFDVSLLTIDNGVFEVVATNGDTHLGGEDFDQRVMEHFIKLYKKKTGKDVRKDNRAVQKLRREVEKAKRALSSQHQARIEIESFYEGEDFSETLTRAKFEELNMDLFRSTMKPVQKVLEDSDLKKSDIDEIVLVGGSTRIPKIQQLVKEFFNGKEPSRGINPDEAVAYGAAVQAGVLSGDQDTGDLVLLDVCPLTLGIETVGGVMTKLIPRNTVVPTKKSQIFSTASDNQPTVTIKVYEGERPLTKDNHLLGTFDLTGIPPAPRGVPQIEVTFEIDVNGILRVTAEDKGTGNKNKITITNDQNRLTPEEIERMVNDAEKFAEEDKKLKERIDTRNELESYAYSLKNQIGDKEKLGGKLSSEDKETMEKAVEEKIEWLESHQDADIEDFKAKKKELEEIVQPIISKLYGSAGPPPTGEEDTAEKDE

The test addresses human S1R fused to the large split fragment of nanoluciferase (S1R^LgBiT) (human) (UniProt Q99720). In words: split reporter; NanoBiT in living HEK-293 S1R-KO cells stably expressing S1R-LgBiT and BiP-SmBiT; coelenterazine 400a, luminescence (RLU) on a CLARIOstar reader; cells treated with vehicle, S1R ligands (acute time course or 16 h) or BAPTA-AM (10 μM, 30 min).

These are yes or no findings as the source states them, for the method shown. Binding seen in cells or lysates may run through a third protein. Some results given as binding are weak or reduced against the parent protein; the word gives no strength.

Take “human BiP fused to the small split fragment of nanoluciferase (BiP^SmBiT) (from UniProt P11021 19-653)”: the binding entry is “binds”.
